According to PMC6193138:
No constants are given. Whether binding was seen depends on the method and setting. Binding seen in cells or lysates may run through a third protein. A result given as binding can be weak or reduced; the word gives no strength.

Target: his6-tagged TelC toxin domain (TelCtox), residues 202-552 of TelC (Streptococcus intermedius B196) (UniProt T1ZG69)
Test: pull-down

VSV-G epitope-tagged TipC1_(ΔTMD) (TipC1_(ΔTMD)-V) (from UniProt T1ZF08) (domain or fragment)
binding: binds
